According to US20200024365A1:
Results are given in words; binding and its absence hold for the method and conditions named. Some results given as binding are weak or reduced against the parent protein; the word gives no strength.

Protein sequences, listed by entry. Tags and fused reporters are not part of them.
UniProt Q9UBN7: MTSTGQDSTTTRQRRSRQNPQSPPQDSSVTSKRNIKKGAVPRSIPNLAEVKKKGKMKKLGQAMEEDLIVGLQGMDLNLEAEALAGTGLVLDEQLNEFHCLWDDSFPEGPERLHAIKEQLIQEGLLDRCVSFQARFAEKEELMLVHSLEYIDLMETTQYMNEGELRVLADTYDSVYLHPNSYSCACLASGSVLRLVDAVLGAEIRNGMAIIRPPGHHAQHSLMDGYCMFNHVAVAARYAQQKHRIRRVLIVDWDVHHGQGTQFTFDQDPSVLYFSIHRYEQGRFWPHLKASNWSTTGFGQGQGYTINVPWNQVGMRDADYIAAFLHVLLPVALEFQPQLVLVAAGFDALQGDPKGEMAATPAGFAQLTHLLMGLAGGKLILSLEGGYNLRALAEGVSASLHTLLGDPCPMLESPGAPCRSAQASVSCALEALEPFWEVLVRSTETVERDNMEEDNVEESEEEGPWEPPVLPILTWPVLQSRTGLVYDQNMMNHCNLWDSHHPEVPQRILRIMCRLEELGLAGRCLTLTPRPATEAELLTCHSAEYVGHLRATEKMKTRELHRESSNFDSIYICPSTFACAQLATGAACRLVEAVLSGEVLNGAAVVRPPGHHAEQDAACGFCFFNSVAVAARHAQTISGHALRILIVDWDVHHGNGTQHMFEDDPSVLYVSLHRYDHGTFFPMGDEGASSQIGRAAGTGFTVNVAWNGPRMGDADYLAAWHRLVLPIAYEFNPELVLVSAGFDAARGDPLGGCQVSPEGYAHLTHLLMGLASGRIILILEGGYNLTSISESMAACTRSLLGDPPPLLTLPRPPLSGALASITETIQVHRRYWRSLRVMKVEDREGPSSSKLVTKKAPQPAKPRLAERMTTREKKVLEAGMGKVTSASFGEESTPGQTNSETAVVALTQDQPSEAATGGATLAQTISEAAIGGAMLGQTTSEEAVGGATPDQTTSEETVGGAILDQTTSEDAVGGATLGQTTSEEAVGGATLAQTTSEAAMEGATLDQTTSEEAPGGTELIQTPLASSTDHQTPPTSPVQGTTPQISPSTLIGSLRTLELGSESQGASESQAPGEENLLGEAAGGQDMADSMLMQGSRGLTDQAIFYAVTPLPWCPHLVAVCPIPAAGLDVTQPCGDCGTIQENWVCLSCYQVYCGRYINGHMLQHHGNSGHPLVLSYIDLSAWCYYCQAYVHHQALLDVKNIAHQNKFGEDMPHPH

Columns and labels:
HDAC6-WT [1] = target: HDAC6-WT (UniProt Q9UBN7); assay: ELISA (legend of FIG. 5)
HDAC6-WT [2] = target: HDAC6-WT (UniProt Q9UBN7); assay: ELISA, purified nanobody on plate coated with HDAC6-WT, anti-HA detection, OD405

Row | binding (HDAC6-WT [1]) | binding (HDAC6-WT [2]) | Binder
1 | binds | binds | SEQ ID NO 14 (VHH) VHH: VQLQESGGGSVQAGGSLRLSCATSGFPFSTYCMGWFRQVPGKEREGVAGIYISHGQTYYADSVKGRFTISRDDKKKTLYLQMEALNPEDTAMYYCAAGDRWYCPADSWSRPERYPFWGQGTQVTVSS
2 | binds | binds | SEQ ID NO 16 (VHH) VHH: VQLQESGGGSVQAGGSLRLSCTASGYTSSMGWFRQAPGKEREGVAAIGIVNAVYADSVKGRFTISKDNAEYTLYLQMNSLKPEDTAMYYCAAVRRLQKKNQLASDEYMYWGQGTQVTVSS
3 | binds | binds | SEQ ID NO 5 (VHH) VHH: ESGGGSAQAGGSLRLSCPASGLTSSTACLAWFRQAPGKEREGVARIRSLFGSTWYADSVKGRFTISQDTTKNMLYLQMDSLKPEDTAMYYCAAGRTGVCYSGSWSPDEFNYWGQGTQVTVSS
4 | binds | binds | SEQ ID NO 8 (VHH) VHH: ESGGGSVQAGGSLRLSCAASGYTYSSTYMAWFRQAPGKEREGVASIYTGDGWTYYANSVKGRFTISRDNAKNTVYLQMNSLKPEDTAMYYCAAKTRAVGGTWSSPNIYTYWGQGTQVTVSS
5 | binds | binds | SEQ ID NO 2 (VHH) VHH: VQLQESGGGSVQAGGSLTLSCVCSGYIPSKAWFRQAPGKEREAVAAIDGPGRIRYVDSVNGRFTISQDIVKKTLVLEMNSLKPEDTAMYYCAADPRLSTNNWSRAPEYRYWGQGTQVTVSS
6 | binds | binds | SEQ ID NO 11 (VHH) VHH: VQLQESGGGSVQAGGSLRLSCAASTYAYSSTYMAWFRQAPGKEREGVASIYTGDGWTYYANSVKGRFTISRDNAKNTVYLQMNSLKPEDTAMYYCAAKTRAVGGTWSSPNIYTYWGQGTQVTVSS
7 | binds | binds | SEQ ID NO 12 (VHH) VHH: VQLQESGGGSVQAGGSLRLSCAASVYRRHNYCMGWFRQRPGKEREEIAIFDRGDSTSYADSVKGRFTISQDNAKNMLYLQMNSLKPEDTAMYYCATSYPRVVIGTCTGGDFRVWGQGTQVTVSS
8 | binds | binds | SEQ ID NO 15 (VHH) VHH: VQLQESGGGSVQAGGSLRLSCAASGFTFSMNGMSWVRQAPGKGLEWVSAITTGGSVATYADSVKGRFTISRDNAKNTLYLQMNNLKTEDTAVYYCATGNQRRPAQHVGVWGQGTQVTVSS
9 | binds | binds | SEQ ID NO 3 (VHH) VHH: ESGGGLVQPGGSLRLSCAASGFTFSNYAMEWVRQAPGKGLEWVSGINSGGIGTYYADSVKGRFTISRDNAKNTLYLQLNSLKTEDTAMYYCAKGYGNMVVAGITSNYRGQGTQVTVSS
